Experimental data: article PMC12848027
Results are given in words; binding and its absence hold for the method and conditions named. Binding seen in cells or lysates may run through a third protein. Here binding means that the protein was enriched with, or labelled near, the bait; the list need not be complete. Tags and fused reporters may be left off the sequences shown.

Biological target: T1, Flag-FUT2 (fucosyltransferase 2), expressed in KPC cells (UniProt Q10981)
T1 sequence: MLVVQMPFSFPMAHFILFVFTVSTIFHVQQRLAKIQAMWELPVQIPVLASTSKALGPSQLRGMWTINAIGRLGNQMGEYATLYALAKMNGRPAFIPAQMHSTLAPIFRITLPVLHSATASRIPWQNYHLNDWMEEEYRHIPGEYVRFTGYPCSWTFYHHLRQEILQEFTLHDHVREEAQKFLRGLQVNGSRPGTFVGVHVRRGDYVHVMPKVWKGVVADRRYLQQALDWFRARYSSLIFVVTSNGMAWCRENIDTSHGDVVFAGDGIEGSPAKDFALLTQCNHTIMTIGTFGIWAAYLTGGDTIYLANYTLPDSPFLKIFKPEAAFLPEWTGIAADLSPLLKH
Experiment: affinity purification with mass spectrometry; Flag-FUT2 immunoprecipitated from KPC cells using anti-Flag resin beads; precipitated complexes analysed by LC-MS/MS

B1: FBXO2 in KPC cells (protein, UniProt Q80UW2 1-297)
chain: MDGDGDPESVSHPEEASPEEQPEEAGAEASAEEEQLREAEEEEEAEAVEYLAELPEPLLLRVLAELPATELVQACRLVCLRWKELVDGAPLWLLKCQQEGLVPEGSADEERDHWQQFYFLSKRRRNLLRNPCGEEDLEGWSDVEHGGDGWRVEELPGDNGVEFTQDDSVKKYFASSFEWCRKAQVIDLQAEGYWEELLDTTQPAIVVKDWYSGRTDAGSLYELTVRLLSENEDVLAEFATGQVAVPEDGSWMEISHTFIDYGPGVRFVRFEHGGQDSVYWKGWFGARVTNSSVWVEP
binding: binds
